{"source": "patent US20090110739A1", "about": "“Targeted cancer chemotherapy using synthetic nanoparticles” (University of North Texas Health Science Center at Forth …, priority 2007, published 2009)", "test_system": "MCF7", "experiment": "MTT cytotoxicity, MCF7 breast cancer cell line", "assay_type": "cell-based", "conditions": "Homo sapiens; MCF7 cells", "description": "The cytotoxic effect of each HDL/drug preparation on breast cancer cells to be assessed by measuring the conversion of the tetrazolium dye MTT to formazan in a microtiter plate format.\nThe cells will be subsequently washed from the flask with complete media, and then centrifuged for 5 minutes at 1000 g to pellet the cells. The cells are then resuspended in complete media. An aliquot is obtained and diluted 1:1 with Trypan Blue. The cells are counted and their viability determined according to the following procedure. The cells are seeded in 96 well microtiter plates (at 3000 cells per well) and allowed to attach for 24 hours. Taxol is diluted to yield a stock solution of 5 μg per 1 ml of PBS and added in 40 μl aliquots to each of the appropriate wells (total volume of 120 μl/well). Controls include media+PTX. […] After a 2 hour incubation at 37° C. and 5.0% CO2, 100 μl of lysing buffer is added to each well. The plates were incubated at 37° C. and 5.0% CO2 overnight, removed from the incubator and then allowed to cool for 15 minutes at room temperature before measuring the absorbance values at 595 nm.", "data": [{"smiles": "CC(=O)O[C@H]1C(=O)[C@@]2(C)[C@H]([C@H](OC(=O)c3ccccc3)[C@]3(O)C[C@H](OC(=O)[C@H](O)[C@@H](NC(=O)c4ccccc4)c4ccccc4)C(C)=C1C3(C)C)[C@]1(OC(C)=O)CO[C@@H]1C[C@@H]2O", "note": "[Ptx, paclitaxel]", "values": [{"measurement": "IC50", "value": 14.2, "unit": "µM"}]}]}
